Measured values as given in patent publication US20220106398A1.
Changes are numbered by the printed parent chain. Results are given in words; binding and its absence hold for the method and conditions named. Binding can be weak; no strength is given.

B1: GITR-Mab-1 scFv (scFv, V domains shown)
VH: QVQLVQSGAEVKKPGASVKVSCKASGYTFTNYHLHWVRQAPGQGLEWMGMINPNDGSTTYAQKFQGRVTMTRDTSTSTVYMELSSLRSEDTAVYYCARSTYYYDSSGYYYYYYGMDVWGQGTTVTVSS
VL: EIVMTQSPATLSVSPGERATLSCRASQSVYSNYLAWYQQKPGQAPRLLIYGASTRATGIPARFSGSGSGTEFTLTISSLQSEDFAVYYCQQYHSYPLTFGGGTKVEIK
B2: GITR-Mab-3 scFv (scFv, V domains shown)
VH: QVQLVQSGAEVKKPGASVKVSCKASGYTFTSYDINWVRQAPGQGLEWMGWISGYNGNTNYAQKFQGRVTMTRDTSTSTVYMELSSLRSEDTAVYYCARSHEYYYYYGMDVWGQGTLVTVSS
VL: B1 VL with Y30S, N32S, H93Y, S94T, Y95T, L97F, G101P, E106D
B3: GITR-Mab-5 scFv (scFv, V domains shown)
VH: EVQLLESGGGLVQPGGSLRLSCAASGFTFDAYAMHWVRQAPGKGLEWVSAIGTGGDTYYADSVKGRFTISRDNSKNTLYLQMNSLRAEDTAVYYCARDLYGSGSPQYYYYYGMDVWGQGTTVTVSS
VL: DIQMTQSPSSLSASVGDRVTITCRASQGIKNDLGWYQQKPGKAPKLLIYAASSLQSGVPSRFSGSGSGTDFTLTISSLQPEDFATYYCQQSYSVPFTFGQGTKVEIK
B4: GITR-Mab-7 scFv (scFv, V domains shown)
VH: QVQLVQSGAEVKKPGASVKVSCKASGGTSSTYAVTWVRQAPGQGLEWMGVINPNDGSTTYAQNFQGRVTMTRDTSTSTVYMELSSLRSEDTAVYYCARWTPLFGVVIPDYYYYGMDVWGQGTLVTVSS
VL: B3 VL with R24Q, G28D, K30S, D32Y, G34N, V94T, F96P, K103R, V104L
B5: GITR-Mab-9 scFv (scFv, V domains shown)
VH: QVQLVQSGAEVKKPGASVKVSCKASGHTFTSQYMHWVRQAPGQGLEWVGVINPNDGSTSYAQKFQGRVTMTRDTSTSTVYMELSSLRSEDTAVYYCARDGAYYYDSSGYYRSSNFDYWGQGTLVTVSS
VL: DIQMTQSPSSLSASVGDRVTITCQASQDIGNYLNWYQQKPGKAPKLLIYGASNLETGVPSRFSGSGSGTDFTLTISSLQPEDFATYYCQQGYSFPLTFGQGTKVEIK
B6: GITR-Mab-10 scFv (scFv, V domains shown)
VH: QVQLVQSGAEVKKPGASVKVSCKASGYTFTSNYMHWVRQAPGQGLEWMGWMNPNSGNTAYAQKFQGRVTMTRDTSTSTVYMELSSLRSEDTAVYYCARGRGGQLLFDYWGQGTLVTVSS
VL: DIQMTQSPSSLSASVGDRVTITCRASQGISSWLAWYQQKPGKAPKLLIYAASTLQSGVPSRFSGSGSGTDFTLTISSLQPEDFATYYCQQYNSYSTFGQGTKVEIK
B7: GITR-Mab-12 scFv (scFv, V domains shown)
VH: QVQLVQSGAEVKKPGASVKVSCKASGYTFTSYAINWVRQAPGQGLEWMGILSPSGGGTSYAPKFQGRVTMTRDTSTSTVYMELSSLRSEDTAVYYCARGPWYFDLWGRGTLVTVSS
VL: B3 VL with K30S, D32S, G34A, V94T, Q100P, E105D
B8: GITR-Mab-14 scFv (scFv, V domains shown)
VH: EVQLLESGGGLVKPGGSLRLSCAASGFRFSVYWMSWVRQAPGKGLEWVSGISGSGGTTYYADSVKGRFTISRDDSKNTLYLQMNSLKTEDTAVYYCARVRRDGYNYNFDYWGQGTLVTVSS
VL: B5 VL with G30S, Y49F, G50D, N53S, T56A, G91A, Y92N, L96P, K103E
B9: GITR-Mab-16 scFv (scFv, V domains shown)
VH: QVQLVQSGAEVKKPGASVKVSCKASGGTLSSYAISWVRQAPGQGLEWMGWIDPNSGGTNYAQKFQGRVTMTRDTSTSTVYMELSSLRSEDTAVYYCARQGLLWFGESGSIYYYYGMDVWGQGTTVTVSS
VL: B3 VL with Q27R, G28S, K30S, D32Y, G34N, A50G, V94T, P95L, F96V
B10: GITR-Mab-18 scFv (scFv, V domains shown)
VH: EVQLLESGGGLVKPGGSLRLSCAASGFTFSSYWMSWVRQAPGKGLEWVSGISWNGGTVGYADSVKGRFTISRDDSKNTLYLQMNSLKTEDTAVYYCAKLGIAVKSHWYFDLWGRGTLVTVSS
VL: DIQMTQSPSSLSASVGDRVTITCRASESISTWLAWYQQKPGKAPKLLIYAASSLQSGVPSRFSGSGSGTDFTLTISSLQPEDFATYYCQQSYTLPLTFGGGTKLEIK
B11: GITR-Mab-19 scFv (scFv, V domains shown)
VH: QVQLVQSGAEVKKPGASVKVSCKASGYTFTSYDINWVRQAPGQGLEWVGIINPSGGSTSYAQKFQGRVTMTRDTSTSTVYMELSSLRSEDTAVYYCARASSGGYYYYYGMDVWGQGTTVTVSS
VL: B10 VL with E27Q, S28D, S30V, T31N, S91Y, T93S, L94Y, G100Q, K103R
B12: GITR-Mab-22 scFv (scFv, V domains shown)
VH: QVQLVQSGAEVKKPGASVKVSCKASGGRFSTYALSWVRQAPGQGLEWMGIINPTDGSTTYAQKFQGRVTMTRDTSTSTVYMELSSLRSEDTAVYYCARDVYSSSWYSDYWGQGTLVTVSS
VL: B3 VL with G28S, K30S, D32W, G34A, S53T, Q100P, E105D
B13: GITR-Mab-23 scFv (scFv, V domains shown)
VH: EVQLLESGGGLVQPGGSLRLSCAASGFPFSTYAIHWVRQAPGKGLEWVSAISGSGGSTYYADSVKGRFTISRDNSKNTLYLQMNSLRAEDTAVYYCAGPDWYFDLWGRGTLVTVSS
VL: B3 VL with G28A, K30S, D32S, G34A, S53T, S56R, S91Y, V94T, F96Y, V104L
B14: GITR-Mab-24 scFv (scFv, V domains shown)
VH: QVQLVQSGAEVKKPGASVKVSCKASGGTFNNYAINWVRQAPGQGLEWMGTINPRDGDTTYAQKFQGRVTMTRDTSTSTVYMELSSLRSEDTAVYYCARVGYYGSGSYYSYYGMDVWGQGTTVTVSS
VL: B3 VL with G28N, K30T, D32W, G34A, S91A, V94F, F96W

What follows are binders tested against cynomolgus monkey His6-GITR (cynomolgus monkey) (assay: ELISA, scFv periplasmic extract on coated His6-GITR).
With B1 the binding was “binds”. With B2 the binding was “binds”. In the case of B3, the binding is reported as “binds”. In the case of B4, the binding is reported as “binds”. With B5 the binding was “binds”. B6 was tested, and the binding was “binds”. With B7 the binding was “binds”. In the case of B8, the binding is reported as “binds”. For B9, the binding was “binds”. In the case of B10, the binding is reported as “binds”. With B11 the binding was “binds”. With B12 the binding was “binds”. In the case of B13, the binding is reported as “binds”. For B14, the binding was “binds”.
